Results reported in the supplement of paper PMC3047530.
The list shows a part of the results. Single values are uncertain, as repeats are few or missing.

System: Geomyces destructans
Assay: growth inhibition relative to DMSO control; higher = stronger growth inhibition
Settings: 10 µM; 15 °C; incubation time 10 days

| Compound | growth inhibition [%] |
| --- | --- |
| Nc1nc(=O)c2c([nH]1)NCC(CNc1ccc(C(=O)N[C@@H](CCC(=O)O)C(=O)O)cc1)N2C=O (stereo not given in full) | -9.23 |
| COc1ccc2c(c1)[C@@]1(C)CCC(=O)C[C@@H]1CC2 [5alpha-12-METHOXY-4,4-BISNOR-8,11,13-PODOCARPATRIEN-3-ONE] | -3.64 |
| C=CCc1ccccc1OCC(O)CNC(C)C (stereo not given) | -6.89 |
| NC[C@H]1CC[C@H](C(=O)O)CC1 | -16.8 |
| Oc1c(Cl)cc(Cl)cc1Sc1cc(Cl)cc(Cl)c1O | 22.3 |
| CCCCOc1ccc(CC(=O)NO)cc1 | -7.02 |
| CC(=O)OC(C)C[N+](C)(C)C (stereo not given) | -6.54 |
| CCCCC[C@H](CC(=O)NO)C(=O)N[C@H](C(=O)N1CCC[C@H]1CO)C(C)C | -24.6 |
| Cc1ccc(O)c([C@H](CCN(C(C)C)C(C)C)c2ccccc2)c1 | -4.34 |
| O=C(O)c1cc(=O)c2c(OCC(O)COc3cccc4oc(C(=O)O)cc(=O)c34)cccc2o1 | -2.78 |
| CC(C)CCC[C@@H](C)[C@H]1CC[C@H]2[C@@H]3CC=C4C[C@@H](O)CC[C@]4(C)[C@H]3CC[C@]12C | 0.0946 |
| CCCCCC1C(=O)CCC1CC(=O)O (stereo not given) | -2.53 |
| Nc1ccn([C@@H]2O[C@H](CO)[C@@H](O)[C@H]2O)c(=O)n1 | -7.53 |
| CN(C)CCC(c1ccccc1)c1ccccn1 (stereo not given) | -32.2 |
| C=CC(C1=CC(=O)C(OC)=CC1=O)c1ccc(O)cc1 (stereo not given) | 0.617 |
| COc1cc(O)c2c(=O)c(-c3ccc(O)cc3)coc2c1 | -9.03 |
| COC(=O)[C@H](O)[C@H]1C(C)(C)[C@H](OC(C)=O)[C@@H]2CC3=C4CC(=O)O[C@@H](c5ccoc5)[C@]4(C)CC[C@@H]3[C@@]1(C)C2=O | -15.2 |
| O=C(O)c1cc(O)c(O)c(O)c1 | 0.708 |
| CC(C)=CCc1c(O)cc(C)oc1=O | 2.44 |
| CCN(CC)C(=O)N1CCN(C)CC1 | -7.34 |
| NCCCCCN | -3.39 |
| CCN(CCCc1ccccc1)CCCc1ccccc1 | -43.7 |
| CCOC(=O)c1c(C)cc(O)c(C)c1O | 2.75 |
| CC[C@]1(O)C[C@@H]2CN(CCc3c([nH]c4ccccc34)[C@@](C(=O)OC)(c3cc4c(cc3OC)N(C)[C@H]3[C@@](O)(C(=O)OC)[C@H](OC(C)=O)[C@]5(CC)C=CCN6CC[C@]43[C@@H]65)C2)C1 | 3.2 |

Six neighbouring records already listed, quoted:

| Compound | growth inhibition [%] |
| --- | --- |
| CC(C)CCC[C@@H](C)[C@H]1CC[C@H]2[C@@H]3CC=C4C[C@@H](O)CC[C@]4(C)[C@H]3CC[C@]12C | 0.0946 |
| CCCCCC1C(=O)CCC1CC(=O)O (stereo not given) | -2.53 |
| Nc1ccn([C@@H]2O[C@H](CO)[C@@H](O)[C@H]2O)c(=O)n1 | -7.53 |
| CN(C)CCC(c1ccccc1)c1ccccn1 (stereo not given) | -32.2 |
| C=CC(C1=CC(=O)C(OC)=CC1=O)c1ccc(O)cc1 (stereo not given) | 0.617 |
| COc1cc(O)c2c(=O)c(-c3ccc(O)cc3)coc2c1 | -9.03 |

Continuation.

| Compound | growth inhibition [%] |
| --- | --- |
| C[C@H]1CC[C@@H](C(C)(C)O)CC2=C1CC[C@@H]2C | 3.38 |
| Oc1cc(O)c2c(c1)O[C@H](c1cc(O)c(O)c(O)c1)[C@H](O)[C@H]2c1c(O)cc(O)c2c1O[C@H](c1cc(O)c(O)c(O)c1)[C@H](O)[C@H]2c1c(O)cc(O)c2c1O[C@H](c1cc(O)c(O)c(O)c1)[C@H](O)C2 | -5.26 |
| Clc1ccc(COC(Cn2ccnc2)c2ccc(Cl)cc2Cl)cc1 (stereo not given) | 75.2 |
| Clc1ccccc1C(c1ccccc1)(c1ccccc1)n1ccnc1 | -9.69 |
| NC(=O)NO | -1.14 |
| CN1CCC[C@H]1c1cccnc1 | -15.5 |
| CCCC(C(=O)OCCN(CC)CC)(c1ccccc1)c1ccccc1 | -1.74 |
| COc1c(OC)c2occc2c2oc(=O)ccc12 | -5.97 |
| Cn1c(=O)c2c(ncn2CC(O)CO)n(C)c1=O (stereo not given) | -3.72 |
| CCCc1nc(C(C)(C)O)c(C(=O)OCc2oc(=O)oc2C)n1Cc1ccc(-c2ccccc2-c2nnn[nH]2)cc1 | -27.5 |
| CC(=O)OC1CC(OC(C)=O)C2(C)C(CC(OC(C)=O)C3(C)C4=CC(=O)OC(=O)C4(C)CCC32)C1(C)C (stereo not given) | 4.26 |
| Nc1nccs1 | -15.6 |
| C[C@@H]1CC2C3C[C@H](F)C4=CC(=O)C=C[C@]4(C)[C@@]3(F)[C@@H](O)C[C@]2(C)[C@@]1(O)C(=O)COC(=O)C(C)(C)C (stereo not given in full) | 2.38 |
| CNC1(C)C2CCC(C2)C1(C)C (stereo not given) | -10.6 |
| CCCCCCCCCCCCCCCC[N+](C)(C)C | -18.8 |
| OC[C@H]1O[C@@H](O[C@H]2[C@H](O)[C@@H](O)[C@@H](O)O[C@@H]2CO)[C@H](O)[C@@H](O)[C@@H]1O | -8.87 |
| CC1=CCCC(C)=CCC(C)(C)C=CC1 [HUMULENE (alpha)] | -2.67 |
| CC1=C(C(=O)O)N2C(=O)[C@@H](NC(=O)[C@H](N)c3ccc(O)cc3)[C@H]2SC1 | 10.3 |
| COc1cc(C)c2c(=O)cc(-c3ccccc3)oc2c1 | -28.1 |
| Nc1ccc(S(N)(=O)=O)cc1 | -12.5 |
| Nc1ncnc2c1ncn2[C@H]1C[C@H](O)[C@@H](CO)O1 | -14.7 |
| CCOc1nc2cccc(C(=O)OC(C)OC(=O)OC3CCCCC3)c2n1Cc1ccc(-c2ccccc2-c2nn[nH]n2)cc1 (stereo not given) | 3.19 |
| CC(CCc1ccc(O)cc1)NCCc1ccc(O)c(O)c1 (stereo not given) | -10.8 |
| COc1ccc([C@H]2Oc3cc(OC)cc(OC)c3C[C@H]2O)cc1 | 2.75 |

| Compound | growth inhibition [%] |
| --- | --- |
| CC(=O)O[C@H](CC(=O)[O-])C[N+](C)(C)C | -3.63 |
| COc1ccc2c(c1)OCC(Cc1ccc(OC)c(OC)c1)C2=O (stereo not given) | 3.4 |
| Cc1cc(O)cc(=O)o1 | 1.61 |
| CC(=O)O[C@H]1CC[C@]2(C)[C@H]3CC=C4[C@@H]5CC(C)(C)CC[C@]5(C(=O)O)CC[C@@]4(C)[C@]3(C)CC[C@H]2C1(C)C | -7.12 |
| S=P(N1CC1)(N1CC1)N1CC1 | -18.6 |
| COc1cc(N)c(Cl)cc1C(=O)NC1CCN(Cc2ccccc2)CC1 | -2.21 |
| CC(C)[C@@H]1CC[C@@H](C)C[C@H]1OC(=O)c1ccccc1 | -1.42 |
| CCCOc1ccc2nc(NC(=O)OC)[nH]c2c1 | -13.8 |
| CCCCOc1ccc(OCCCN2CCOCC2)cc1 | -30.5 |
| CC1CCc2cc(F)cc3c(=O)c(C(=O)O)cn1c23 (stereo not given) | -6.72 |
| COc1ccccc1OCCNCC(O)COc1cccc2[nH]c3ccccc3c12 (stereo not given) | -20.1 |
| COc1cc(-c2coc3cc(OCc4ccccc4)c(OC)c(O)c3c2=O)cc(O)c1OC | -8.5 |
| CC(C)[C@H]1CC[C@H](C(=O)N[C@H](Cc2ccccc2)C(=O)O)CC1 | -28 |
| COC(=O)/C(=C1/OC(=O)C(c2ccccc2)=C1O)c1ccccc1 | -2.36 |
| CC1OC1P(=O)(O)O (stereo not given) | -3.47 |
| COc1c(O)cc2c(c1O)[C@@H]1O[C@H](CO)[C@@H](O)[C@H](O)[C@H]1OC2=O | 2.52 |
| CC(=O)Oc1cccc(C(=O)O)c1OC(C)=O | -6.21 |
| COC(=O)[C@@H]1OC(=O)C2OC23[C@@]1(C)CCC1[C@]2(C)C(C[C@@H](O)[C@]13C)C(C)(C)[C@H](OC(C)=O)C[C@@H]2OC(C)=O (stereo not given in full) | -2.85 |
| CC(C)=CCc1c(O)cc2occ(-c3ccc4c(c3)OCO4)c(=O)c2c1O | 12.1 |
| CC(=O)O[C@H]1CC[C@]2(C)[C@H]3C(=O)C=C4[C@@H]5[C@@H](C)[C@H](C)CC[C@]5(C(=O)O)CC[C@@]4(C)[C@]3(C)CC[C@H]2C1(C)C | -3.05 |
| CCn1cc(C(=O)O)c(=O)c2cc(F)c(N3CCNCC3)cc21 | -17.8 |
| NCC1OC(OC2C(N)CC(N)C(OC3OC(CO)C(O)C(N)C3O)C2O)C(N)C(O)C1O (stereo not given) | 1.55 |
| CC(=O)O[C@H]1C[C@@H](OC(C)=O)C(C)(C)C2CC(=O)[C@]3(C)C(CC[C@@]4(C)[C@H](C(=O)O)OC(=O)C5OC543)[C@]21C (stereo not given in full) | -6.49 |
| CCOC(=O)C1=C(C)NC(C)=C(C(=O)OC)C1c1cccc([N+](=O)[O-])c1 (stereo not given) | 60.5 |

| Compound | growth inhibition [%] |
| --- | --- |
| CC1(C)S[C@@H]2[C@H](N3C(=O)[C@@H](c4ccccc4)NC3(C)C)C(=O)N2[C@H]1C(=O)O | -0.525 |
| O=C(CCCCCCCCCCCCC1CCCC1)Nc1ccc(S(=O)(=O)c2ccc(NC(=O)CCCCCCCCCCCCC3CCCC3)cc2)cc1 | -17.3 |
| NS(=O)(=O)c1cc2c(cc1C(F)(F)F)NC(Cc1ccccc1)NS2(=O)=O (stereo not given) | -4.57 |
| C=C1[C@H]2CC[C@@]3(C)[C@H](c4ccoc4)OC(=O)C[C@]13O[C@H]1C[C@H](O)C(C)(C)[C@H](CC(=O)OC)[C@]12C [3-DEOXY-3beta-HYDROXYANGOLENSIC ACID METHYL ESTER] | -11.5 |
| CC(CN1c2ccccc2Sc2ccccc21)N(C)C (stereo not given) | -16.5 |
| Cc1onc(-c2ccccc2)c1C(=O)N[C@@H]1C(=O)N2[C@@H]1SC(C)(C)[C@@H]2C(=O)O | -14.8 |
| CC(C)=CCc1c2c(c(O)c3c(=O)c(O)c(-c4ccccc4)oc13)C=CC(C)(C)O2 | -6.22 |
| CCCC(CCC)C(=O)O | -4.28 |
| COc1ccc(-c2coc3cc(O)cc(O)c3c2=O)cc1 | -9.1 |
| COc1c2c(cc3occ(-c4ccc5c(c4)OCO5)c(=O)c13)OC(C)(C)C=C2 | 7.71 |
| CC1(C)O[C@H]2[C@H](O)C[C@](O)(C(N)=O)C[C@H]2O1 | -0.236 |
| COC1=CC(=O)C[C@@H](C)[C@]12Oc1c(Cl)c(OC)cc(OC)c1C2=O | -19.7 |
| CC[C@H](/C=C/[C@@H](C)[C@H]1CC[C@H]2[C@@H]3CCC4=CC(=O)CC[C@]4(C)[C@H]3CC[C@]12C)C(C)C | -7.05 |
| COc1cc2c(cc1OC)C(=O)OC2 | -22.3 |
| OCC(O)CN1CCN(c2ccccc2)CC1 (stereo not given) | -3.75 |
| COC1=C(OC)C(=O)C(C/C=C(\C)CC/C=C(\C)CC/C=C(\C)CC/C=C(\C)CC/C=C(\C)CC/C=C(\C)CC/C=C(\C)CC/C=C(\C)CC/C=C(\C)CCC=C(C)C)=C(C)C1=O | -7.45 |
| COc1ccc(CC(=O)c2ccc(O)cc2O)cc1 | 6.63 |
| Cn1c(=O)c2c(ncn2C)n(C)c1=O | 28.8 |
| Cc1c(OCC(F)(F)F)ccnc1C[S+]([O-])c1nc2ccccc2[nH]1 (stereo not given) | -1.38 |
| CC(C)(C)NCC(O)c1ccc(O)c(CO)c1 (stereo not given) | -0.163 |
| C[C@@H]1CC[C@@]2(OC1)O[C@H]1C[C@H]3[C@@H]4CC[C@@H]5CC(=O)CC[C@]5(C)[C@H]4CC[C@]3(C)[C@H]1[C@@H]2C | -2.54 |
| COc1c2ccoc2cc2oc(C)cc(=O)c12 | -7.53 |
| NC(=O)c1ccc[n+]([C@@H]2O[C@H](COP(=O)([O-])OP(=O)(O)OC[C@H]3O[C@@H](n4cnc5c(N)ncnc54)[C@H](O)[C@@H]3O)[C@@H](O)[C@H]2O)c1 | -6.7 |

2 compounds picked at random from the list so far, as already listed:

| Compound | growth inhibition [%] |
| --- | --- |
| COc1c(O)cc2c(c1O)[C@@H]1O[C@H](CO)[C@@H](O)[C@H](O)[C@H]1OC2=O | 2.52 |
| NCC1OC(OC2C(N)CC(N)C(OC3OC(CO)C(O)C(N)C3O)C2O)C(N)C(O)C1O (stereo not given) | 1.55 |
